Our source for the binding values is patent US20030027314A1.

The experiment concerns the target bZIP VBP protein (chicken vitellogenin gene-binding protein) (chicken). The experiment in a line: CD thermal melt: the mixture gives the same curve as the sum of the two homodimer curves.

These are yes or no findings as the source states them, for the method shown.

B1: 3heptad-F (designed binder)
chain: ASMTGGQQMGRDPGGGLARENEELEKEAEELEQENAELEQEVLELESRNDRLRKEVEQLERELDTLRGIFRQLPESSLVKAMGNCA
With B1, the binding result is reported as “no binding”.
